From patent US20050085416A1, “Biologically active complex” (priority 2002, published 2005)
Some of these results come from one statement about several compounds together.

System: L1210 leukaemia cells
Experiment: Apoptosis bioassay: L1210 cell viability by Trypan blue exclusion
Assay type: cell-based, mouse
Conditions: after six hours
Procedure: The different agonists were dissolved in cell culture medium, without fetal calf serum, and added to the cells (final volume 1 ml per well). Plates were incubated at 37° C. in 5% CO2 atmosphere and 100 μl of fetal calf serum was added to each well after 30 minutes. Cell culture medium served as a control.
Cell viability was determined by Trypan blue exclusion after six hours of incubation. For analysis, 30 μl of the cell suspension was mixed with 30 μl of a 0.2% trypan blue solution and the number of stained cells (dead cells) per 100 cells was determined by interference contrast microscopy (Ortolux II, Leitz Wetzlar, Germany).

B1: C18:1:11cis complex: complex of apo-α-lactalbumin with C18:1:11cis fatty acid eluted after 1M NaCl (protein, UniProt P00709 20-142, looked up)
Alpha-lactalbumin: KQFTKCELSQLLKDIDGYGGIALPELICTMFHTSGYDTQAIVENNESTEYGLFQISNKLWCKSSQVPQSRNICDISCDKFLDDDITDDIMCAKKILDIKGIDYWLAHKALCTEKLEQWLCEKL
modifications: complex with C18:1:11cis fatty acid
notes: complex of apo-α-lactalbumin with C18:1:11cis fatty acid eluted after 1M NaCl
Q: With B1 as the molecule, how does the cells killed read?
A: Its cells killed is 99-100%.
